No constants are given. Whether binding was seen depends on the method and setting. For some assays here: In cells and extracts the contact can be indirect. Blank lines part the entries; values can stand above or below the substance they belong to.
Key:
[1] = target: TAZ-WT-GST fusion protein (human) (UniProt Q9GZV5); experiment: pull-down; 5 µg of GST fusion protein added to 200 µg of precleared HEK293 lysate, 2 hr at 4 °C, glutathione sepharose 4B beads; washes in 50 mM Tris-HCl pH 7.4, 150 mM NaCl, 1 mM EDTA, 1.0% Nonidet P-40; blot with anti-FLAG; only the target purified
[2] = target: FLAG-tagged TAZ-3CA (C262A, C320A and C363A) (human) (UniProt Q9GZV5); experiment: non-reducing SDS-PAGE with immunoblot; cell lysates (15 µg of transfected HEK293; 30 µg of H460 for endogenous TAZ) in SDS sample buffer without DTT, 3 min at 60 °C; blot with anti-FLAG, anti-HA or anti-TAZ; series with increasing DTT run beside
[3] = target: TAZ-WT, FLAG- or HA-tagged (human) (UniProt Q9GZV5); experiment: co-IP; HEK293 cells transfected with HA- and FLAG-tagged plasmids alone or together; 1% NP-40 lysis buffer; immunoprecipitation with anti-HA, blot with anti-FLAG and anti-HA; washes with 150 mM NaCl, 1% NP-40
[4] = target: TAZ-3CA-GST fusion protein (human) (UniProt Q9GZV5); experiment: non-reducing SDS-PAGE with immunoblot; 1 µg of purified His-YAP2L or GST-TAZ protein, sample buffer without DTT; blot with anti-His-HRP or anti-YAP, or Ponceau-S staining; both purified
[5] = target: TAZ-WT-GST fusion protein (human) (UniProt Q9GZV5); experiment: non-reducing SDS-PAGE with immunoblot; 1 µg of purified His-YAP2L or GST-TAZ protein with DTT (reducing SDS-PAGE, or 10 mM DTT before non-reducing SDS-PAGE); blot with anti-His-HRP or anti-YAP, or Ponceau-S staining; both purified

Amino acid sequences for entries named in this document (tags omitted). A change or cut given only in a name is not applied to a line headed by its entry.
UniProt Q9GZV5: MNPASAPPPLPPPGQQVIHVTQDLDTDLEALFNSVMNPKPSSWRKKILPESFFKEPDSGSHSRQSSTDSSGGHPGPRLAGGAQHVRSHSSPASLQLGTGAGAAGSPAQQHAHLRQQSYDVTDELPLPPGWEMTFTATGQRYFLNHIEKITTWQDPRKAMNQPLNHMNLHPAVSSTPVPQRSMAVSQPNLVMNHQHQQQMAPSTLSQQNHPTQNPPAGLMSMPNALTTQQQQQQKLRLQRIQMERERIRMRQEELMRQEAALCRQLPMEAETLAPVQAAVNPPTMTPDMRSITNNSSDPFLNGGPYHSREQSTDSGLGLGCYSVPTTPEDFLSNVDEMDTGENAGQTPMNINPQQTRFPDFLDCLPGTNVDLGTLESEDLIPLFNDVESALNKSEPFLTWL

binding [1]: no binding
binding [2]: no binding
binding [3]: no binding
Substance: FLAG-tagged TAZ-3CA (C262A, C320A and C363A) (from UniProt Q9GZV5 1-400)

binding [4]: no binding
Substance: TAZ-3CA-GST fusion protein (from UniProt Q9GZV5 1-400)

binding [5]: no binding (condition: with 10 mM DTT)
Substance: TAZ-WT-GST fusion protein (from UniProt Q9GZV5 1-400)

Source: PMC5823869
